Results on one substance are retold here after publication PMC10326439.

Amino acid sequences for entries named in this document (tags omitted). Residues count along the entry.
UniProt P54761, residues 16-987: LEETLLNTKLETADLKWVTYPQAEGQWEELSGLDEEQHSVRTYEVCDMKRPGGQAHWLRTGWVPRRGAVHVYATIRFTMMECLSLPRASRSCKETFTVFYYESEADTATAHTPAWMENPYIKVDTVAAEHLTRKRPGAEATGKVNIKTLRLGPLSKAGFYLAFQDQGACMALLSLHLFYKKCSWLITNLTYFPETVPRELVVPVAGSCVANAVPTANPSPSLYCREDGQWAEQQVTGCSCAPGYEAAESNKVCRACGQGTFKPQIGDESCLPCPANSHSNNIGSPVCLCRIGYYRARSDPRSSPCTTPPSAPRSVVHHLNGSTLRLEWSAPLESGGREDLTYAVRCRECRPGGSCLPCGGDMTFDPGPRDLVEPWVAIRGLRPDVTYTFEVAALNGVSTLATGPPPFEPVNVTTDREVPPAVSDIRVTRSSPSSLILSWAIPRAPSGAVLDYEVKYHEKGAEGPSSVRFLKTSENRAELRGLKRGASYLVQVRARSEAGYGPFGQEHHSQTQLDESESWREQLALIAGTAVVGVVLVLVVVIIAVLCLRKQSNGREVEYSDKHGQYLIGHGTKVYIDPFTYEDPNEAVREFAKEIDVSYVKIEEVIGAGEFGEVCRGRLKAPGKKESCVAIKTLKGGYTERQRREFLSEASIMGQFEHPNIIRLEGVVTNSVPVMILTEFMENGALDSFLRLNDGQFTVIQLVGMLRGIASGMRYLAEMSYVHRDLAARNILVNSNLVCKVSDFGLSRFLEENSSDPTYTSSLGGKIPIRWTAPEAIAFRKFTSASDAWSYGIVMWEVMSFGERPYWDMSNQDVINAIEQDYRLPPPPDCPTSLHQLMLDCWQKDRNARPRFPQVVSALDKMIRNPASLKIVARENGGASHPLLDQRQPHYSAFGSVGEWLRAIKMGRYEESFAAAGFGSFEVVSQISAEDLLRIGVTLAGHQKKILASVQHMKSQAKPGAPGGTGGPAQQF
UniProt P52800, residues 29-336: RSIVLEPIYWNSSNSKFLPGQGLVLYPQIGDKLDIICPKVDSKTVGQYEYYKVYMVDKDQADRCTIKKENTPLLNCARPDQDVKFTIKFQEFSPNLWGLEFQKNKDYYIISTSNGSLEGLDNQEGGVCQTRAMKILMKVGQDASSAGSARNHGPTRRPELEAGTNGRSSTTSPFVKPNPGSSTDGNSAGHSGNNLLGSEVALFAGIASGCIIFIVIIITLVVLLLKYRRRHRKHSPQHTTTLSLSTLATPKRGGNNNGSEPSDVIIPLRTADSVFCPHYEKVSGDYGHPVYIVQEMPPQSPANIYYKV

The target of this assay is EphB4 (mouse (endogenous in primary C57BL/6 BMSC-derived osteoblasts)) (UniProt P54761). Put plainly: co-IP; immunoprecipitation with anti-EphB4 antibody from the osteoblast-osteoclast co-culture system, 7 days in osteogenic medium, with or without LIPUS stimulation; EphrinB2 detected in the precipitate.

These are yes or no findings as the source states them, for the method shown. In cells and extracts the contact can be indirect. Some binding calls cover weakened binding; strength is not graded here.

As to “EphrinB2 (from UniProt P52800 29-336) (ligand)”, the binding entry was “binds”.
